Test results taken from the supplement of paper PMC8728848.
The list shows a part of the results.

Columns and labels:
Experiment in all cases: glycan array binding signal (z-score within array); higher = stronger binding
Details in all cases: glycan notation: IUPAC condensed, linker removed
[1] = molecular target: Neu5Ac(a2-3)Gal(b1-3)GlcNAc(b1-6)GalNAc
Outline: (§1)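 Columns mapping to the same glycan were averaged after glycan names were converted to IUPAC-condensed notation. The data come from 3228 arrays in the Consortium for Functional Glycomics database, limited to those with an available protein sequence. Binding is reported as a within-array Z-score averaged across arrays of one protein sequence and across linkers.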

[2] = molecular target: Neu5Ac(a2-3)Gal(b1-3)GlcNAc6S
Outline: as §1

[3] = molecular target: Neu5Ac(a2-3)Gal(b1-3)[Fuc(a1-4)]GlcNAc
Outline: as §1

[4] = molecular target: Neu5Ac(a2-3)Gal(b1-3)[Fuc(a1-4)]GlcNAc(b1-3)Gal(b1-3)[Fuc(a1-4)]GlcNAc
Outline: as §1

[5] = molecular target: Neu5Ac(a2-3)Gal(b1-3)[Fuc(a1-4)]GlcNAc(b1-3)Gal(b1-4)[Fuc(a1-3)]GlcNAc
Outline: as §1

[6] = molecular target: Neu5Ac(a2-3)Gal(b1-3)[GlcNAc(b1-6)]GalNAc
Outline: as §1

[7] = molecular target: Neu5Ac(a2-3)Gal(b1-3)[Neu5Ac(a2-6)]GalNAc
Outline: as §1

[8] = molecular target: Neu5Ac(a2-3)Gal(b1-3)[Neu5Ac(a2-6)]GlcNAc(b1-3)[Fuc(a1-3)[Gal(b1-4)]GlcNAc(b1-6)]Gal(b1-4)Glc
Outline: as §1

[9] = molecular target: Neu5Ac(a2-3)Gal(b1-3)]Neu5Ac(a2-3)Gal(b1-4)]GlcNAc
Outline: as §1

[10] = molecular target: Neu5Ac(a2-3)Gal(b1-4)Glc
Outline: as §1

[11] = molecular target: Neu5Ac(a2-3)Gal(b1-4)GlcNAc
Outline: as §1

[12] = molecular target: Neu5Ac(a2-3)Gal(b1-4)GlcNAc(b1-2)Man
Outline: as §1

[13] = molecular target: Neu5Ac(a2-3)Gal(b1-4)GlcNAc(b1-2)Man(a1-3)[GlcNAc(b1-4)][Neu5Ac(a2-3)Gal(b1-4)GlcNAc(b1-2)Man(a1-6)]Man(b1-4)GlcNAc(b1-4)GlcNAc
Outline: as §1

[14] = molecular target: Neu5Ac(a2-3)Gal(b1-4)GlcNAc(b1-2)Man(a1-3)[Neu5Ac(a2-3)Gal(b1-4)GlcNAc(b1-2)Man(a1-6)]Man(b1-4)GlcNAc(b1-4)GlcNAc
Outline: as §1

[15] = molecular target: Neu5Ac(a2-3)Gal(b1-4)GlcNAc(b1-2)Man(a1-3)[Neu5Ac(a2-3)Gal(b1-4)GlcNAc(b1-2)Man(a1-6)]Man(b1-4)GlcNAc(b1-4)[Fuc(a1-6)]GlcNAc
Outline: as §1

[16] = molecular target: Neu5Ac(a2-3)Gal(b1-4)GlcNAc(b1-2)Man(a1-3)[Neu5Ac(a2-6)Gal(b1-4)GlcNAc(b1-2)Man(a1-6)]Man(b1-4)GlcNAc(b1-4)GlcNAc
Outline: as §1

[17] = molecular target: Neu5Ac(a2-3)Gal(b1-4)GlcNAc(b1-2)[Neu5Ac(a2-3)Gal(b1-4)GlcNAc(b1-4)]Man(a1-3)[GlcNAc(b1-4)][Neu5Ac(a2-3)Gal(b1-4)GlcNAc(b1-2)[Neu5Ac(a2-3)Gal(b1-4)GlcNAc(b1-6)]Man(a1-6)]Man(b1-4)GlcNAc(b1-4)GlcNAc
Outline: as §1

[18] = molecular target: Neu5Ac(a2-3)Gal(b1-4)GlcNAc(b1-2)[Neu5Ac(a2-3)Gal(b1-4)GlcNAc(b1-4)]Man(a1-3)[GlcNAc(b1-4)][Neu5Ac(a2-3)Gal(b1-4)GlcNAc(b1-4)Man(a1-6)]Man(b1-4)GlcNAc(b1-4)GlcNAc
Outline: as §1

[19] = molecular target: Neu5Ac(a2-3)Gal(b1-4)GlcNAc(b1-2)[Neu5Ac(a2-3)Gal(b1-4)GlcNAc(b1-6)]Man(a1-6)[Neu5Ac(a2-3)Gal(b1-4)GlcNAc(b1-2)Man(a1-3)][GlcNAc(b1-4)]Man(b1-4)GlcNAc(b1-4)GlcNAc
Outline: as §1

[20] = molecular target: Neu5Ac(a2-3)Gal(b1-4)GlcNAc(b1-3)Gal
Outline: as §1

[21] = molecular target: Neu5Ac(a2-3)Gal(b1-4)GlcNAc(b1-3)Gal(b1-3)GlcNAc
Outline: as §1

[22] = molecular target: Neu5Ac(a2-3)Gal(b1-4)GlcNAc(b1-3)Gal(b1-4)GlcNAc
Outline: as §1

[23] = molecular target: Neu5Ac(a2-3)Gal(b1-4)GlcNAc(b1-3)Gal(b1-4)GlcNAc(b1-2)Man(a1-3)[Neu5Ac(a2-3)Gal(b1-4)GlcNAc(b1-3)Gal(b1-4)GlcNAc(b1-2)Man(a1-6)]Man(b1-4)GlcNAc(b1-4)GlcNAc
Outline: as §1

[24] = molecular target: Neu5Ac(a2-3)Gal(b1-4)GlcNAc(b1-3)Gal(b1-4)GlcNAc(b1-3)Gal(b1-4)GlcNAc
Outline: as §1

[25] = molecular target: Neu5Ac(a2-3)Gal(b1-4)GlcNAc(b1-3)Gal(b1-4)GlcNAc(b1-3)Gal(b1-4)GlcNAc(b1-2)Man(a1-3)[Neu5Ac(a2-3)Gal(b1-4)GlcNAc(b1-3)Gal(b1-4)GlcNAc(b1-3)Gal(b1-4)GlcNAc(b1-2)Man(a1-6)]GalNAc
Outline: as §1

[26] = molecular target: Neu5Ac(a2-3)Gal(b1-4)GlcNAc(b1-3)Gal(b1-4)GlcNAc(b1-3)GalNAc
Outline: as §1

[27] = molecular target: Neu5Ac(a2-3)Gal(b1-4)GlcNAc(b1-3)Gal(b1-4)GlcNAc(b1-3)[Neu5Ac(a2-3)Gal(b1-4)GlcNAc(b1-3)Gal(b1-4)GlcNAc(b1-6)]GalNAc
Outline: as §1

[28] = molecular target: Neu5Ac(a2-3)Gal(b1-4)GlcNAc(b1-3)Gal(b1-4)GlcNAc(b1-6)[Gal(b1-3)]GalNAc
Outline: as §1

[29] = molecular target: Neu5Ac(a2-3)Gal(b1-4)GlcNAc(b1-3)Gal(b1-4)[Fuc(a1-3)]GlcNAc
Outline: as §1

[30] = molecular target: Neu5Ac(a2-3)Gal(b1-4)GlcNAc(b1-3)GalNAc
Outline: as §1

[31] = molecular target: Neu5Ac(a2-3)Gal(b1-4)GlcNAc(b1-3)[Neu5Ac(a2-3)Gal(b1-4)GlcNAc(b1-6)]GalNAc
Outline: as §1

[32] = molecular target: Neu5Ac(a2-3)Gal(b1-4)GlcNAc(b1-6)GalNAc
Outline: as §1

[33] = molecular target: Neu5Ac(a2-3)Gal(b1-4)GlcNAc(b1-6)[Gal(b1-3)]GalNAc
Outline: as §1

[34] = molecular target: Neu5Ac(a2-3)Gal(b1-4)GlcNAc(b1-6)[Neu5Ac(a2-3)Gal(b1-3)]GalNAc
Outline: as §1

[35] = molecular target: Neu5Ac(a2-3)Gal(b1-4)GlcNAc6S
Outline: as §1

[36] = molecular target: Neu5Ac(a2-3)Gal(b1-4)[Fuc(a1-3)]GlcNAc
Outline: as §1

[37] = molecular target: Neu5Ac(a2-3)Gal(b1-4)[Fuc(a1-3)]GlcNAc(b1-2)Man
Outline: as §1

[38] = molecular target: Neu5Ac(a2-3)Gal(b1-4)[Fuc(a1-3)]GlcNAc(b1-3)Gal
Outline: as §1

[39] = molecular target: Neu5Ac(a2-3)Gal(b1-4)[Fuc(a1-3)]GlcNAc(b1-3)Gal(b1-4)GlcNAc
Outline: as §1

[40] = molecular target: Neu5Ac(a2-3)Gal(b1-4)[Fuc(a1-3)]GlcNAc(b1-3)Gal(b1-4)[Fuc(a1-3)]GlcNAc(b1-3)Gal(b1-4)[Fuc(a1-3)]GlcNAc
Outline: as §1

[41] = molecular target: Neu5Ac(a2-3)Gal(b1-4)[Fuc(a1-3)]GlcNAc(b1-3)GalNAc
Outline: as §1

[42] = molecular target: Neu5Ac(a2-3)Gal(b1-4)[Fuc(a1-3)]GlcNAc(b1-6)[Gal(b1-3)]GalNAc
Outline: as §1

[43] = molecular target: Neu5Ac(a2-3)Gal(b1-4)[Fuc(a1-3)]GlcNAc(b1-6)[Neu5Ac(a2-3)Gal(b1-3)]GalNAc
Outline: as §1

[44] = molecular target: Neu5Ac(a2-3)Gal(b1-4)[Fuc(a1-3)]GlcNAc6S
Outline: as §1

[45] = molecular target: Neu5Ac(a2-3)Gal6S(b1-4)GlcNAc
Outline: as §1

B1: SUN4 (Saccharomyces cerevisiae), P53616 (protein)
chain: MGSSHHHHHHSSGLVPRGSHNGSIYGDLADFSGPYEKFEDGTIPCGQFPSGQGVIPISWLDEGGWSGVENTDTSTGGSCKEGSYCSYACQPGMSKTQWPSDQPSDGRSIGGLLCKDGYLYRSNTDTDYLCEWGVDAAYVVSELSNDVAICRTDYPGTENMVIPTYVQAGDSLPLTVVDQDTYYTWQGLKTSAQYYVNNAGISVEDACVWGSSSSGVGNWAPLNFGAGSSDGVAYLSLIPNPNNGNALNFNVKIVAADDSSTVNGECIYENGSFSGGSDGCTVSVTAGKAKFVLYN
- glycan array binding signal (z-score) [1]: 0.252
- glycan array binding signal (z-score) [2]: 0.449
- glycan array binding signal (z-score) [3]: 0.219
- glycan array binding signal (z-score) [4]: -0.09
- glycan array binding signal (z-score) [5]: -0.306
- glycan array binding signal (z-score) [6]: -0.883
- glycan array binding signal (z-score) [7]: -0.426
- glycan array binding signal (z-score) [8]: -0.13
- glycan array binding signal (z-score) [9]: -0.699
- glycan array binding signal (z-score) [10]: 0.161
- glycan array binding signal (z-score) [11]: -0.138
- glycan array binding signal (z-score) [12]: -0.24
- glycan array binding signal (z-score) [13]: -0.343
- glycan array binding signal (z-score) [14]: 0.18
- glycan array binding signal (z-score) [15]: -0.548
- glycan array binding signal (z-score) [16]: -0.338
- glycan array binding signal (z-score) [17]: 0.48
- glycan array binding signal (z-score) [18]: -0.636
- glycan array binding signal (z-score) [19]: -0.391
- glycan array binding signal (z-score) [20]: 0.136
- glycan array binding signal (z-score) [21]: -0.71
- glycan array binding signal (z-score) [22]: 0.296
- glycan array binding signal (z-score) [23]: 0.062
- glycan array binding signal (z-score) [24]: -0.165
- glycan array binding signal (z-score) [25]: 0.416
- glycan array binding signal (z-score) [26]: 0.459
- glycan array binding signal (z-score) [27]: -0.307
- glycan array binding signal (z-score) [28]: -1.04
- glycan array binding signal (z-score) [29]: -0.248
- glycan array binding signal (z-score) [30]: 0.2
- glycan array binding signal (z-score) [31]: 0.422
- glycan array binding signal (z-score) [32]: -0.402
- glycan array binding signal (z-score) [33]: 0.062
- glycan array binding signal (z-score) [34]: 0.667
- glycan array binding signal (z-score) [35]: -1.19
- glycan array binding signal (z-score) [36]: -0.661
- glycan array binding signal (z-score) [37]: 1.38
- glycan array binding signal (z-score) [38]: -0.808
- glycan array binding signal (z-score) [39]: 1.14
- glycan array binding signal (z-score) [40]: -0.761
- glycan array binding signal (z-score) [41]: 1.91
- glycan array binding signal (z-score) [42]: 0.276
- glycan array binding signal (z-score) [43]: 1.15
- glycan array binding signal (z-score) [44]: 0.712
- glycan array binding signal (z-score) [45]: -0.628
